## Primary screen of a compound library

The chains behind the UniProt entries cited, without tags or fusion partners. Residues count along the entry.
UniProt Q8IDJ8, 1-583: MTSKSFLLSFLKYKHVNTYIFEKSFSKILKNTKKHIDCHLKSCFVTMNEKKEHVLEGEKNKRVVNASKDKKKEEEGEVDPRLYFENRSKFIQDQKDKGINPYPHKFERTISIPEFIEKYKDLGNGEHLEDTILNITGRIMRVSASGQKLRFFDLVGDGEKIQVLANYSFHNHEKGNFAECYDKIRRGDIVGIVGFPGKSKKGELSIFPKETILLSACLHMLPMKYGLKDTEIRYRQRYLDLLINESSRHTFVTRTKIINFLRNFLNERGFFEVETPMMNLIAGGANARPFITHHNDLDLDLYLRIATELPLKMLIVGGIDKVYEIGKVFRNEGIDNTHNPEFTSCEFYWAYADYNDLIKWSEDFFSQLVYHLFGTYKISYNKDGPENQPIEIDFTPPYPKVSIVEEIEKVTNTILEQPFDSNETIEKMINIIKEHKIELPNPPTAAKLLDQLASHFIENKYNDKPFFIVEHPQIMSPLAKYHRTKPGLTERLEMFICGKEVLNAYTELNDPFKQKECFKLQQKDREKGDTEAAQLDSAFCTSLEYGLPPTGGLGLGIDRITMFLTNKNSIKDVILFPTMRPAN
UniProt Q4DA54, 1-478: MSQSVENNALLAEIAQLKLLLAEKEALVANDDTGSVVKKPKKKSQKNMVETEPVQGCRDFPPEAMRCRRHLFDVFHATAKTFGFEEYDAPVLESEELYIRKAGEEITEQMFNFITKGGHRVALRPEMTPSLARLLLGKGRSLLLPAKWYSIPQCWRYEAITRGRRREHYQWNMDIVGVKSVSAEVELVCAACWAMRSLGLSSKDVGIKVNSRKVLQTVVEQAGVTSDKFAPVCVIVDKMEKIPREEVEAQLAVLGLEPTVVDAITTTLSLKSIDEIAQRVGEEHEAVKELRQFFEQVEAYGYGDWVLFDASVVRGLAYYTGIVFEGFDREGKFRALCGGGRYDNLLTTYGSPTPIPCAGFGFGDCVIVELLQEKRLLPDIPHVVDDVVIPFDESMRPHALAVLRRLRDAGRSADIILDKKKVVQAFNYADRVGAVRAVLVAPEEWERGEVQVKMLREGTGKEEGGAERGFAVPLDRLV
UniProt I6X8D2, whole entry: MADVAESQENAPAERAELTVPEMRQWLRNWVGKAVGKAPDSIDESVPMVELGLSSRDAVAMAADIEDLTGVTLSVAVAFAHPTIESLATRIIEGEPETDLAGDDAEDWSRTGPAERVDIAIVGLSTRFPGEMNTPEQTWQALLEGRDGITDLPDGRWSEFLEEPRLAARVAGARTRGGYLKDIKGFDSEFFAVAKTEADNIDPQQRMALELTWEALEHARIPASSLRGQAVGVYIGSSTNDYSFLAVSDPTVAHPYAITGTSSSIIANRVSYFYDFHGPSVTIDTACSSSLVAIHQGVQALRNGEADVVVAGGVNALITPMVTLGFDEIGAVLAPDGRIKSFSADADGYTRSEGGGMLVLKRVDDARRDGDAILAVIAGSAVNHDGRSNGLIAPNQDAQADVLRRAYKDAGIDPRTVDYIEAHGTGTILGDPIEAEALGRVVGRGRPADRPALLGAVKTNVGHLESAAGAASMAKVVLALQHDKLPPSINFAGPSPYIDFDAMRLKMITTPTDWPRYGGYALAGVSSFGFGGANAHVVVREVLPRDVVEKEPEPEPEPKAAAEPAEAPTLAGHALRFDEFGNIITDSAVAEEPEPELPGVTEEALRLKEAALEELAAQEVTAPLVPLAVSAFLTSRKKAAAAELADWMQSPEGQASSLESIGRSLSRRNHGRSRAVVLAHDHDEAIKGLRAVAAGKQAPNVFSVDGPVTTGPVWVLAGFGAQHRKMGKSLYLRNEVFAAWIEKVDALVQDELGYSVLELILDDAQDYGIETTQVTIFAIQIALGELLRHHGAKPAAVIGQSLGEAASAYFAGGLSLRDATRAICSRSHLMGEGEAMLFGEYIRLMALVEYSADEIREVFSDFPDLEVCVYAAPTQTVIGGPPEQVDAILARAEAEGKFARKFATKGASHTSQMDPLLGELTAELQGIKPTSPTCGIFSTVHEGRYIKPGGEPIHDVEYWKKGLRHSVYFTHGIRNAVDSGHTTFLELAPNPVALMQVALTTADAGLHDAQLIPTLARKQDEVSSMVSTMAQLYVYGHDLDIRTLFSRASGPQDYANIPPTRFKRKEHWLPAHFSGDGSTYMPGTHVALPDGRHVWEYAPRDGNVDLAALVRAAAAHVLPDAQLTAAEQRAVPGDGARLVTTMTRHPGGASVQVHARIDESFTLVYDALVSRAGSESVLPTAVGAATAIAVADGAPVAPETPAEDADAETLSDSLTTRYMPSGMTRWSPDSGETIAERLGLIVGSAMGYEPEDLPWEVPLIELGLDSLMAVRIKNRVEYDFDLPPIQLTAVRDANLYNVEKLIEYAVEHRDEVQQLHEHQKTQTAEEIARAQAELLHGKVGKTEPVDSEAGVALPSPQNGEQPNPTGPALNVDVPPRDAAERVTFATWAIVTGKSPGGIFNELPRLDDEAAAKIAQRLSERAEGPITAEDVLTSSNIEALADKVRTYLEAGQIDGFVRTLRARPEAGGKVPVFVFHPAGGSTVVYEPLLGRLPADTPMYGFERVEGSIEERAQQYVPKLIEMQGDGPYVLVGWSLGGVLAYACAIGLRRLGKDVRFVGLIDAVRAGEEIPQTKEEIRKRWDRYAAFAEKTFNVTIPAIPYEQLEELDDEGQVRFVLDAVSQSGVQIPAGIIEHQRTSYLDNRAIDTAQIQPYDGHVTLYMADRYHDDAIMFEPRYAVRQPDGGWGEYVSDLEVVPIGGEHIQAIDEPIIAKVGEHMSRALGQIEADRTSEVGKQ

The values are deposited in ChEMBL (CHEMBL3988442, “University of Dundee, Small-Polar-MMV Screening Library” (2021)).

A: 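Lysine-tRNA ligase, Plasmodium falciparum 3D7 (UniProt Q8IDJ8). Enzyme assay of the cytosolic lysyl-tRNA synthetase in 384-well plates, read by luminescence. Concentration: 30 µM. Direction is inferred from only a few compounds that gave an IC50; most scored high, so higher reads as stronger inhibition. About 69,000 compounds were tested under these conditions; 0.071% (about 49) showed 50% or more at least once.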
B: 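Histidine-tRNA ligase, Trypanosoma cruzi CL Brener (UniProt Q4DA54). Enzyme assay of histidyl-tRNA synthetase; the read-out is not stated. Tested at 30 µM. The record gives no direction; compounds that gave an IC50 in retests scored well above the rest, so higher reads as stronger inhibition. Of about 69,000 compounds tested this way, about 31 (0.045%) reached 50% or more in at least one test.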
C: 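Enzyme assay of the thioesterase domain of polyketide synthase 13; the read-out is not stated. Target: Polyketide synthase Pks13, Mycobacterium tuberculosis (UniProt I6X8D2). Concentration: 30 µM. The record gives no direction; the compounds picked for IC50 retests had high values, so higher reads as stronger inhibition. Size under these conditions: about 67,000 compounds, about 300 of them at 50% or above in at least one test.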

Each number is a percent effect as filed. How 0% and 100% were set is not recorded. Most values in the screen are low, and negative values occur. This is an unselected part of the compounds tested.

- COc1nn(C)cc1C(=O)N1CCC(C)CC1 | A: -3.514%; B: 9%; C: -42.57%
- O=C(NCC1CCS(=O)(=O)C1)c1ccc(NC(=O)c2ccco2)cc1 (configuration not stated) | A: 3.215%; B: 9.091%; C: 11.51%
- CCCN1CCN(C(=O)c2cnccn2)[C@H]2CS(=O)(=O)C[C@H]21 | A: -2.521%; B: -2.5%; C: -4.157%
- Fc1cnc(N2CCn3c(CN4CCCC4)nnc3C2)nc1 | A: -2.011%; B: 3.226%; C: -9.011%
- COC(=O)c1ccc(N2CCN(Cc3csc(C)n3)CC2)nn1 | A: 6.826%; B: 8.621%; C: -18.93%
- O=C(c1scc2c1OCCO2)N1CCC(Cc2cccc(CO)c2)C1 (configuration not stated) | A: 6.161%; B: 4.04%; C: -11.47%
- COCCC1(CO)CCCN(CCCc2ccccc2)C1 (configuration not stated) | A: -2.862%; B: -3.061%; C: -15.11%
- O=C1CCCN1c1cccc(CNCc2nc(C3CC3)no2)c1 | A: 6.766%; B: 0%; C: -2.799%
- O=C(CC1CCCO1)Nc1ccc2c(ccn2CCN2CCOCC2)c1 (configuration not stated) | A: 3.817%; B: 7.182%; C: -21.32%
- Cc1ncsc1CN1C[C@@H](OCc2ccccn2)[C@H]2OCCC[C@H]21 | A: 1.845%; B: 8.696%; C: -12.05%
- CC(C)SCc1cccc(NC(=O)NC(C)c2nc[nH]n2)c1 (configuration not stated) | A: 1.58%; B: 0.6024%; C: -3.877%
- Cc1cc(N2CCC(N(C)C(=O)c3sccc3C)CC2)nc(C)n1 | A: 8.202%; B: 6.098%; C: -3.271%
- CN(CCc1ccccn1)C(=O)CCC1CCCN(c2ncccn2)C1 (configuration not stated) | A: 2.626%; B: -0.8%; C: 6.488%
- COCCCN1CCCC12CCN(Cc1cccnc1OC)CC2 | A: 15.18%; B: 3.797%; C: 1.973%
- CC(C(=O)NC1CC1)S(=O)(=O)Cc1nc(Cc2ccccc2)no1 (configuration not stated) | A: 9.02%; B: 2.062%; C: -5.045%
- Cc1ccc(C(=O)N(C)Cc2ccc(Br)o2)c(=O)[nH]1 | A: 3.71%; B: 4.523%; C: -10.61%
- CC(C)c1cc(C(=O)N2CCC3(CCc4ccccc4C(=O)N3)C2)on1 (configuration not stated) | A: -0.1139%; B: 9.579%; C: 6.327%
- CC(NC(=O)NCCc1nc(C(F)(F)F)cs1)C(=O)N(C)C (configuration not stated) | A: 4.703%; B: 0%; C: -8.003%
- Cc1cc(C(=O)NC2(c3ccc(Br)cc3)CC2)n(C)n1 | A: 5.17%; B: 5.732%; C: -31.65%
- CCn1cc(SCC(=O)N2CCCC(O)(CO)C2)c2ccccc21 (configuration not stated) | A: 0.8926%; B: -70.13%; C: -18.9%
- CNC(=O)[C@H]1C[C@@H]2CN(S(=O)(=O)c3cccc(F)c3)C[C@@H]2N1C | A: 9.237%; B: 11.76%; C: -33.06%
- CN1CCCN(c2ncnc(N3CCOCC3)c2N)CC1 | A: 1.076%; B: 7.955%; C: 10.49%
- O=C(C1CCC1)N1CCN(Cc2ccc(F)cc2)[C@H]2CS(=O)(=O)C[C@H]21 | A: 6.241%; B: 2.97%; C: -20.07%
- O=C(NC1CCCC1)c1ccc(C2CCCNC2)nc1 (configuration not stated) | A: 0.2127%; B: 6.844%; C: -12.51%
- COc1cccc(-c2noc(C3CCN(CC(N)=O)C3)n2)c1 (configuration not stated) | A: 3.538%; B: 5.65%; C: 22.06%
- N#Cc1cccc(CN2CCn3cc(CNC(=O)C4CCC4)nc3C2)c1 | A: 5.849%; B: 8.824%; C: -36.67%
- Cc1ccoc1C(=O)N1CC[C@H]2O[C@@H](C)C[C@H]2C1 | A: 0.7594%; B: 0.5405%; C: -11.89%
- Cc1ncsc1CCC(=O)NC1CCN(c2ncccc2C#N)CC1 | A: 1.305%; B: -5.797%; C: 6.428%
- Cc1nnc(N2CCCC3(CN(c4ccccn4)CCO3)C2)o1 (configuration not stated) | A: 3.207%; B: 9.548%; C: -614%
- COc1ccc(OC)c(C2CCN(C(=O)C3CCN(C(C)C)CC3)C2)c1 (configuration not stated) | A: 3.671%; B: 5.028%; C: -37.53%
- Cc1noc(C)c1CN1CC[C@H]2[C@H]1CCN2CC1CCOCC1 | A: 58.97%; B: -2.222%; C: 10.28%
- CCc1ccccc1C(=O)N1C[C@@H](CN2CCOCC2)[C@@H](CO)C1 | A: -1.115%; B: -8.543%; C: -12.37%
- Cc1nn(C)c2ncc(NC(=O)N(C)Cc3cc(Cl)cn3C)cc12 | A: -1.458%; B: 3.743%; C: -21.75%
- CN1CCN(Cc2ccoc2)Cc2cccnc21 | A: 5.509%; B: 6.011%; C: -4.306%
- COc1ccc(C)nc1NC(=O)CCc1c(C)nn(C)c1C | A: -1.744%; B: -1.657%; C: 24.56%
- CCC(SC)C(=O)N1CCC(n2cccn2)CC1 (configuration not stated) | A: 1.458%; B: 2.89%; C: -1.91%
- COc1cc(OC)cc(-c2noc(CN)n2)c1 | A: -6.056%; B: -9.554%; C: -10.93%
- CNC(=O)CSc1nc2c(cnn2Cc2ccc(F)cc2)c(=O)[nH]1 | A: -5.715%; B: 4.132%; C: -2.549%

Repeated from the top, 4 entries:

compound,A,B,C
COc1nn(C)cc1C(=O)N1CCC(C)CC1,-3.514%,9%,-42.57%
O=C(NCC1CCS(=O)(=O)C1)c1ccc(NC(=O)c2ccco2)cc1 (configuration not stated),3.215%,9.091%,11.51%
CCCN1CCN(C(=O)c2cnccn2)[C@H]2CS(=O)(=O)C[C@H]21,-2.521%,-2.5%,-4.157%
Fc1cnc(N2CCn3c(CN4CCCC4)nnc3C2)nc1,-2.011%,3.226%,-9.011%